Assay results: PubChem BioAssay AID504834 (National Center for Advancing Translational Sciences (NCATS), 2011)
Screen size: about 320,000 compounds; about 22,000 (6.9%) were called active. The inconclusive results got no clear call from the source; some entries with a clear call stand among them for comparison. The call rests on the fitted dose curve; in most records, active means well fitted inhibition curve with a large enough effect; inconclusive means small, poorly fitted or top-dose-only effect, or another doubt; inactive means no such curve, though single readings can be large or run the other way. Potencies beside an inconclusive call are fits to weak or partial responses and may not hold up.

Experiment: Primary qHTS for delayed death inhibitors of the malarial parasite plastid, 96 hour incubation
Details: P. falciparum luciferase reporter growth; series mostly up to 28.7 µM; activity change, negative = inhibition: at the top concentration
How it was run: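 Erythrocytes infected with luciferase-expressing P. falciparum were dispensed at 2% hematocrit and 0.05% parasitemia (final), then incubated with compounds 96 hours at 37 C in 5% CO2. Luminescence after detection reagent addition reported growth.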
On the % scale 0 is the no-effect control and ±100 the full control effect; potency means the concentration at half of the fitted maximal effect.

SMILES | Potency | activity change, negative = inhibition
CC(C)Oc1ccccc1OCCN(C)C | inconclusive: 18.5 µM [inhibitor, partial curve, poor fit] | 
CCOC(=O)C1=C(c2ccccc2)OC(N)=C(C#N)C1c1cccnc1 (configuration not stated) | inconclusive: 8.28 µM [inhibitor, partial curve, poor fit] | 
COc1ccccc1CNC(=O)COC(=O)c1ccccc1SCC(=O)N1CCCC1 | inconclusive: 13.1 µM [inhibitor, partial curve] | 
CCCC1=NN2C(=N)/C(=C\c3ccc(OCCOc4ccc(NC(C)=O)cc4)c(OC)c3)C(=O)N=C2S1 | inconclusive: 0.738 µM [inhibitor, full curve, poor fit] | 
CCCCN1C(=O)/C(=c2\sc3nc(=O)c(-c4ccccc4)nn3c2=O)c2ccccc21 | inconclusive: 0.465 µM [inhibitor, full curve, poor fit] | 
CCOC(=O)c1cc2nc(Nc3ccc(OC)cc3)sc2s1 |  | inactive: 10.5%
[O-][n+]1c2c(nn1-c1ccccc1)/C(=N/O)CCC2 | inconclusive: 2.62 µM [inhibitor, partial curve, poor fit] | 
COc1ccc(-c2cc(C(=O)NCC3CCCO3)c3cc(C)ccc3n2)cc1 (configuration not stated) | inconclusive: 11.7 µM [inhibitor, single point] | 
CCc1ccc(C(C(=O)NC2CCCC2)N(Cc2cccnc2)C(=O)c2csnn2)cc1 (configuration not stated) | inconclusive: 1.17 µM [inhibitor, partial curve, poor fit] | 
c1ccc(COC2CCCN(Cc3nc(-c4cccs4)no3)C2)nc1 (configuration not stated) |  | inactive: 3.53%
Cc1cc2cc(CCNC(=O)c3cccc([N+](=O)[O-])c3)c(=O)[nH]c2cc1C | inconclusive: 5.22 µM [inhibitor, partial curve] | 
N#C/C(=C/c1ccc(-c2ccc(Br)cc2)o1)C(=O)NC1CCCCC1 | inconclusive: 18.5 µM [inhibitor, single point] | 
CCOc1ccc(NC(=O)CC2C(=O)NCCN2C(=O)Nc2ccccc2)cc1 (configuration not stated) | active: 14.7 µM | 
Cc1cc([N+](=O)[O-])c2[nH]c(C(=O)N/N=C/c3ccccc3C(=O)O)c(-c3ccccc3)c2c1 | inconclusive: 0.586 µM [inhibitor, full curve, poor fit] | 
Cc1nc2cc(C(F)(F)F)ccc2n1C1CCN(C(=O)N2CCOCC2)CC1 | inconclusive: 11.7 µM [inhibitor, single point] | 
CC(C)OC(=O)c1cccc(NC(=O)CSc2nnc(N)s2)c1 |  | inactive: 10.3%
C/C(=N\Nc1ccc(C)c(Cl)c1)c1ccncc1 | inconclusive: 13.1 µM [inhibitor, single point] | 
O=C(COC(=O)/C=C/c1cccc(Cl)c1)NC1CC1 | inconclusive: 0.0047 µM [inhibitor, full curve, poor fit] | 
CCOc1ccc(CNC(=O)Cn2c(=O)c3cccn3c3ccccc32)cc1 | inconclusive: 4.15 µM [inhibitor, full curve] | 
COc1ccc(CCN2C(=O)CC(Cc3ccc(Br)cc3)C2=O)cc1OC (configuration not stated) | inconclusive: 18.5 µM [inhibitor, single point] | 
COCCn1c(C)cc(/C=N/NC(=O)c2cccnc2)c1C |  | inactive: 69.3%
COc1cc2c(cc1OC)C(C(=O)Nc1ccc3c(c1)OCCO3)C1c3ccccc3CCN1C2=O (configuration not stated) | active: 9.28 µM | 
Cc1ccc(-c2cc(NC(=O)c3ccccc3[N+](=O)[O-])n[nH]2)cc1 | inconclusive: 14.7 µM [inhibitor, single point] | 

Rewritten with each value named: 3 of the compounds above
Cc1cc2cc(CCNC(=O)c3cccc([N+](=O)[O-])c3)c(=O)[nH]c2cc1C
  Potency: inconclusive: 5.22 µM [inhibitor, partial curve]
N#C/C(=C/c1ccc(-c2ccc(Br)cc2)o1)C(=O)NC1CCCCC1
  Potency: inconclusive: 18.5 µM [inhibitor, single point]
CCOc1ccc(NC(=O)CC2C(=O)NCCN2C(=O)Nc2ccccc2)cc1 (configuration not stated)
  Potency: active: 14.7 µM

Remaining list, next part:

SMILES | Potency | activity change, negative = inhibition
CC1CN(c2nc3ccccc3nc2C(C#N)C(=O)NC2CCCCC2)CC(C)O1 (configuration not stated) | inconclusive: 18.5 µM [inhibitor, single point] | 
O=C(CSc1nnc2c(n1)[nH]c1ccccc12)N1CCCCC1 | inconclusive: 18.5 µM [inhibitor, single point] | 
O=C1CCCC/C1=C\Nc1ccccc1C(=O)O |  | inactive: -24.3%
CC(=O)Nc1ccc(NC(=O)C(C)OC(=O)c2ccccc2NS(=O)(=O)c2cccs2)cc1 (configuration not stated) | inconclusive: 0.0104 µM [inhibitor, full curve, poor fit] | 
COc1ccc(CN2CCC(CO)(CCOc3ccccc3)CC2)cc1C |  | inactive: 4.06%
CCOc1ccc(NC(=O)CSc2nc3nc(C)cc(C)n3n2)cc1 | inconclusive: 11.7 µM [inhibitor, partial curve] | 
Cc1cc([N+](=O)[O-])ccc1Nc1nc2ccccc2n2cnnc12 |  | inactive: -9.79%
CC(CC(=O)Nc1ccc(Cl)c(S(=O)(=O)N2CCOCC2)c1)c1ccccc1 (configuration not stated) | inconclusive: 6.57 µM [inhibitor, partial curve] | 
CC1(C)CC(NC(=O)C2CCC(=O)N(C3CC3)C2)CC(C)(C)C1 (configuration not stated) | active: 8.28 µM | 
CCOc1ccccc1Cn1c(=O)oc2ccc(C)cc21 | inconclusive: 8.28 µM [inhibitor, partial curve] | 
COc1c(/C=N/Nc2nc(N3CCCCC3)nc(N3CCCCC3)n2)cccc1[N+](=O)[O-] | inconclusive: 18.5 µM [inhibitor, single point] | 
Cc1ccc2oc(=O)c3cnn(CC(=O)NCCCOC(C)C)c3c2c1 | inconclusive: 4.15 µM [inhibitor, single point] | 
COc1ccc(Cl)cc1C(=O)Nc1ccc(OCC(=O)N2CCOCC2)cc1 | inconclusive: 20.8 µM [inhibitor, single point] | 
CSc1ccc(/C=C/C(=O)OCC(=O)N2CCc3ccccc32)cc1 |  | inactive: 25.3%
O=C(Nc1ccccc1)N1CCCc2ccccc21 | inconclusive: 6.57 µM [inhibitor, partial curve, poor fit] | 
CN1C(=O)/C(=C/c2ccco2)SC1=Nc1cccc(C(=O)O)c1 | inconclusive: 20.8 µM [inhibitor, partial curve, poor fit] | 
CCOc1ccc(C(CC(=O)O)NC(=O)C2c3ccccc3Oc3ccccc32)cc1 (configuration not stated) | inconclusive: 13.1 µM [inhibitor, single point] | 
Cc1ccc(-n2c(C)cc(C(=S)N3CCOCC3)c2C)cc1C | active: 10.4 µM | 
Clc1ccc(N2CCN(Cc3ccco3)CC2)cc1 | inconclusive: 18.5 µM [inhibitor, single point] | 
Cc1cc(C(=O)NC2CCCc3c2cnn3-c2ccc(C(C)(C)C)cc2)nn1C (configuration not stated) |  | inactive: 18.4%
CCN(c1ccccc1)S(=O)(=O)c1cc(C(=O)OC(C)C(=O)Nc2ccc3c(c2)OCCO3)ccc1C (configuration not stated) | inconclusive: 11.7 µM [inhibitor, partial curve, poor fit] | 
CCOc1ccc(NC(=S)N(CCc2c(C)[nH]c3ccc(C)cc23)Cc2cccnc2)cc1 | active: 3.7 µM | 
CCOc1ccc(-n2c(SCC(=O)NCc3ccco3)nnc2-c2c[nH]c3ccccc23)cc1 | inconclusive: 11.7 µM [inhibitor, partial curve] | 

SMILES | Potency | activity change, negative = inhibition
Clc1cccc(OCCCn2ccnc2)c1 | inconclusive: 10.4 µM [inhibitor, single point] | 
COc1ccc(-c2c(C)nn3c(N4CCOCC4)cc(C)nc23)cc1OC | inconclusive: 0.586 µM [inhibitor, partial curve, poor fit] | 
CC(C)COc1ccc(-c2cc(C(=O)NN)[nH]n2)cc1 | inconclusive: 18.5 µM [inhibitor, single point] | 
Cc1ccc(S(=O)(=O)Nc2ccc(-c3nc4ccc(C)cc4s3)cc2)cc1 |  | inactive: 47.8%
C=CCSc1nnc(NC(=O)c2nc(SCC)ncc2Cl)s1 | inconclusive: 10.4 µM [inhibitor, partial curve] | 
CSc1nnc(-c2cnccn2)n1Cc1ccccc1 | inconclusive: 10.4 µM [inhibitor, partial curve, poor fit] | 
CCOc1ccc(C(=O)C(CN2CCOCC2)c2ccccc2)cc1 (configuration not stated) | inconclusive: 13.1 µM [inhibitor, single point] | 
CC(C)Cn1c(SC(C)C(=O)NCC2CCCO2)nc2ccc(Cl)cc2c1=O (configuration not stated) | inconclusive: 13.1 µM [inhibitor, partial curve, poor fit] | 
C=C(C)COc1ccc(-c2nc(N)ncc2-c2ccccc2OC)c(O)c1 | inconclusive: 13.1 µM [inhibitor, single point] | 
CCC(=O)Nc1ccc(O)cc1 |  | inactive: 1.4%
CCc1ccc(C(=O)OCC(=O)c2c(N)n(CC(C)C)c(=O)n(C)c2=O)cc1 | active: 13.1 µM | 
CC1(C)CC(=O)C=C(NCc2cccc(C(F)(F)F)c2)C1 | inconclusive: 4.65 µM [inhibitor, partial curve, poor fit] | 
COc1ccc(Cl)cc1C(=O)NNC(=O)CSc1nnnn1C |  | inactive: -2.25%
COc1cc(/C=N/Nc2ccnc(=O)[nH]2)ccc1O | inconclusive: 18.5 µM [inhibitor, single point] | 
CCC(C)(C)n1nnnc1C(c1ccncc1)N1CCC(C)CC1 (configuration not stated) |  | inactive: 5.35%
COc1cc(C(C(=O)NC2CCCC2)N(C(=O)c2snc(C(N)=O)c2N)c2ccccc2)cc(OC)c1OC (configuration not stated) | active: 8.28 µM | 
O=S1(=O)NC(=NCC(c2ccco2)N2CCCCC2)c2ccccc21 (configuration not stated) | active: 13.1 µM | 
Cc1cc(C)n2ncc(C(=O)Nc3ccc4c(c3)OCO4)c2n1 | inconclusive: 11.7 µM [inhibitor, partial curve] | 
CC1CN(C(=O)c2cc3c(=O)n4ccccc4nc3n2C)CC(C)O1 (configuration not stated) | inconclusive: 10.4 µM [inhibitor, partial curve, poor fit] | 
COc1ccc(N2CCN(C(=O)Nc3ccc(S(=O)(=O)N(C)C)cc3)CC2)cc1 |  | inactive: -3.92%
Cc1ccc(-c2n[nH]c(=O)c3ccccc23)cc1S(=O)(=O)NCC1CCCO1 (configuration not stated) | inconclusive: 14.7 µM [inhibitor, partial curve] | 
